According to patent publication CN114316057A:
No constants are given. Whether binding was seen depends on the method and setting. Some results given as binding are weak or reduced against the parent protein; the word gives no strength.

Experiments:
[1] = molecular target: T1, TOM20-Mouse 胞质结构域 (mouse) (UniProt Q9DCC8); assay: SPR (Biacore)
T1 sequence (looked up): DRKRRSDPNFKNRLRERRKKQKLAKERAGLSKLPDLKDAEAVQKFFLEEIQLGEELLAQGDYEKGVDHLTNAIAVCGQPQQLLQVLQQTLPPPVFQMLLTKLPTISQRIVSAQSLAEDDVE

[2] = molecular target: T1, TOM20-Mouse 胞质结构域 (mouse); assay: Biacore (Figure 3C legend)

binding [1]: binds
binding [2]: binds
B1: P2B7号纳米抗体 (VHH, not shown: large carriers)
VHH: AVQLVESGGGLVQAGGSLRLSCVASGSTFSNFVMGWYRQAPGKQRVLVATISSGGSTNYADSVKGRFTISRDNTKNTVYLQMNSLKPEDTSVYYCNARRGSVIVPTLAYDYWGQGTQVTVSS
